{
  "source": "paper PMC7751758",
  "about": "“Repurposing Sigma-1 Receptor Ligands for COVID-19 Therapy?” (Frontiers in Pharmacology, 2020)",
  "origin": "cited, not measured here",
  "key": {"[1]": {"system": "Ebola virus (EBOV)"}, "[2]": {"system": "HCV-induced cytopathic effect on the engineered cell line n4mBid", "settings": "leads of the cell protection screen, ref Chockalingam et al., 2010"}, "[3]": {"system": "HCV infection of human hepatocarcinoma Huh-7 cells", "settings": "absence of cytotoxicity at low micromolar and submicromolar concentrations; ref Gastaminza et al., 2010"}, "[4]": {"system": "EBOV", "settings": "guinea pig, in vivo"}},
  "note": "Where two headings read alike, the source gives them in different places.",
  "data": [
    {"smiles": "CCCCc1oc2ccccc2c1C(=O)c1cc(I)c(OCCN(CC)CC)c(I)c1", "note": "[Amiodarone]", "values": [
      {"measurement": "cellular toxicity", "setting": "[1]", "value": "< 30", "unit": "%"},
      {"measurement": "alleviation of HCV-induced cytopathic effect (n4mBid cell viability relative to untreated cells)", "setting": "[2]", "value": "inhibit the HCV-induced cytopathic effect"},
      {"measurement": "alleviation of HCV-induced cytopathic effect (n4mBid cell viability relative to untreated cells)", "setting": "[2]; listed as amiodarone", "value": "increase n4mBid cell viability"},
      {"measurement": "reduction in HCV infection of Huh-7 cells, as compared to the vehicle DMSO control", "setting": "[3]", "value": "> 85", "unit": "%"},
      {"measurement": "protection from a lethal dose of EBOV", "setting": "[4]", "value": "failed to protect"}
    ]}
  ]
}
